From patent US20230374087A1, “METHOD TO IMPROVE PROTEIN QUALITY CONTROL” (The Johns Hopkins University, priority 2020, published 2023)
No constants are given. Whether binding was seen depends on the method and setting. Binding seen in cells or lysates may run through a third protein. Some binding calls cover weakened binding; strength is not graded here.

Chains of the proteins cited; added tags and fusions are not shown. Lines headed by an entry give the natural chain unless they say otherwise; changes in a name come on top. Residues count along the entry.
UniProt P63017, residues 2-646: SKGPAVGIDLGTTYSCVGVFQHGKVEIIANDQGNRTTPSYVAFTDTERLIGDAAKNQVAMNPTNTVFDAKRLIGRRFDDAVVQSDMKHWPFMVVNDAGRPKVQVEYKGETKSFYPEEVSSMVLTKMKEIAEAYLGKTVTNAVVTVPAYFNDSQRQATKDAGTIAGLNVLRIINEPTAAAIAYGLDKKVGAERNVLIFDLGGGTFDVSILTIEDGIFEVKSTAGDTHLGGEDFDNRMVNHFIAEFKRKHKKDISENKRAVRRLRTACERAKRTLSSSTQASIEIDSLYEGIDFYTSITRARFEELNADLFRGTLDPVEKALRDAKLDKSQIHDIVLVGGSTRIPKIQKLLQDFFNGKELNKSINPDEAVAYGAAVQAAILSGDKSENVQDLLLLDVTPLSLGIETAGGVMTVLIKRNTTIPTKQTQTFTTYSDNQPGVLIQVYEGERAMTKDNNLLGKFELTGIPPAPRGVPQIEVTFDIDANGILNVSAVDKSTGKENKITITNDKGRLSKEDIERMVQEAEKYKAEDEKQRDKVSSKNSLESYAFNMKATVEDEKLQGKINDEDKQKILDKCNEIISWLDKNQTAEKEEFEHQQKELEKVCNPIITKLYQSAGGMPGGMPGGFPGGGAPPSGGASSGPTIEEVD
UniProt Q9WUD1: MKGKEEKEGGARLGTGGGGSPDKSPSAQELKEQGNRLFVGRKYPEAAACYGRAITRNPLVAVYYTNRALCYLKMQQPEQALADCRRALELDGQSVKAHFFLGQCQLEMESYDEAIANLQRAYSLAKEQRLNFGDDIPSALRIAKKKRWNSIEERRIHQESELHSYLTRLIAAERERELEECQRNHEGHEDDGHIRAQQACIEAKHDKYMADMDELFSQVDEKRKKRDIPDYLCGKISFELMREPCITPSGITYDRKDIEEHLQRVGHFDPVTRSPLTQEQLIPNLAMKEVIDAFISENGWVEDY

Tests used:
[1] = biological target: Hsc70, endogenous in mouse myocardium (mouse) (UniProt P63017); test: co-immunoprecipitation from mouse myocardium (FIG. 5C)
[2] = biological target: Hsc70, endogenous in mouse myocardium (mouse) (UniProt P63017); test: co-immunoprecipitation from mouse myocardium

binding [1]: binds
binding [2]: binds
Substance: mouse CHIP, endogenous in myocardium (from UniProt Q9WUD1 1-304)
